# Source: PubChem BioAssay AID445 (National Center for Advancing Translational Sciences (NCATS), 2006)
# Some of the results follow. Further columns of the screen follow, without active or inactive calls. Most of these compounds were active or inconclusive in the main read-out, so they are no random draw. Potencies come from curve fits of mixed quality, noted in brackets.
# Assay: IkB Signaling
# Conditions: ABC-DLBCL IkBa-CBG/CBR dual luciferase ratio (green luciferase fused to IkBa over red control in OCI-Ly3 lymphoma cells), 4 h
# In short: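 Luminescence ratio of IκBα-fused green versus native red beetle luciferase in OCI-Ly3 cells, 4 h post-doxycycline with compound; red signal alone, scaled from basal (0%) to zero light (-100%), flagged nonspecific or cytotoxic effects.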
# [1] = measured here: control luc red channel unless noted
smiles,measurement,setting,value
CCOc1ccc(NC(=O)c2c(NC(=O)c3ccco3)sc3c2CCC(C(C)(C)C)C3)cc1 (stereo unspecified),AC50,[1],"39.8 µM [falling, partial curve, poor fit]"
COc1cc(NS(=O)(=O)c2ccc(NC(=O)C(C)Oc3ccc(Cl)cc3Cl)cc2)nc(OC)n1 (stereo unspecified),AC50,[1],"15.8 µM [falling, partial curve]"
COc1ccc(Nc2c(-c3ccc(Cl)cc3)nc3cnccn23)cc1OC,AC50,[1],"39.8 µM [falling, single point]"
O=C(NCc1ccccc1Cl)C1CCN(S(=O)(=O)c2ccc3c(c2)CCCN3C(=O)C2CCC2)CC1,AC50,[1],"2 µM [rising, partial curve]"
CC(O)c1ccc2c(c1)OCCOCCN(C)CCOCCO2 (stereo unspecified),AC50,[1],"126 nM [rising, full curve] [measured here: IkB-luc green channel]"
Cc1cccc(N2C(=O)C(CC(=O)Nc3cccc(F)c3)N(Cc3cccs3)C2=O)c1 (stereo unspecified),AC50,[1],"15.8 µM [falling, single point]"
Cc1ccc(Nc2cc(C)nc3nc(Cc4ccc(Cl)cc4)nn23)cc1,AC50,[1],"25.1 µM [falling, partial curve]"
Cc1ccc(-c2ccc(=O)n(Cc3ccc(F)cc3)n2)cc1,AC50,[1],"39.8 µM [falling, single point]"
COc1cccc(CNC(=O)Cn2c(=O)oc3cc(S(=O)(=O)N4CCCC4)ccc32)c1,AC50,[1],"25.1 µM [falling, partial curve]"
Cc1ccc(CN2CCSc3ccc(C(=O)Nc4ccc(Cl)cc4)cc32)cc1,AC50,[1],"25.1 µM [falling, partial curve]"
CCOc1ccc(CCNC(=O)CCCc2cc(-c3ccc(OCC)cc3)on2)cc1,AC50,[1],"15.8 µM [falling, partial curve, poor fit]"
N#Cc1c(/N=C/c2ccco2)oc(-c2ccccc2)c1-c1ccccc1,AC50,[1],"31.6 µM [falling, partial curve]"
O=C(CSc1nc(-c2ccc(F)cc2)cc(C(F)(F)F)n1)NCc1ccccc1,AC50,[1],"0.316 µM [rising, full curve]"
Cc1cc(C(=O)CSc2nnc(-c3ccco3)o2)c(C)n1-c1ccc2c(c1)OCCO2,AC50,[1],"12.6 µM [falling, partial curve]"
Cc1cccc(C(=O)Nc2c3c(nn2-c2ccc(Cl)cc2)CS(=O)(=O)C3)c1,AC50,[1],"31.6 µM [falling, partial curve]"
CCOC(=O)c1ccc2c(c1)N(Cc1cccc(OC)c1)C(=O)c1ccccc1S2(=O)=O,AC50,[1],"3.98 µM [rising, single point]"
CCOC(=O)c1c(-c2ccccc2)oc2ccc(NS(=O)(=O)c3ccc(OC)cc3)cc12,AC50,[1],"31.6 µM [falling, single point]"
CC(C)(C)OC(=O)N1CCC(c2c(C(=O)NC3CCN(Cc4ccccc4)CC3)cnn2-c2cccc(F)c2)CC1,AC50,[1],"31.6 µM [falling, single point]"
COc1ccc(S(=O)(=O)Nc2cccc(-c3ccc(N4CCOCC4)nn3)c2)cc1F,AC50,[1],"10 µM [falling, partial curve]"
O=C(Cn1nc(-c2ccccc2)ccc1=O)NCc1ccc(F)cc1Cl,AC50,[1],"39.8 µM [falling, single point]"
COc1ccccc1NC(=O)N(Cc1ccco1)Cc1cc2cc(C)cc(C)c2[nH]c1=O,AC50,[1],"15.8 µM [falling, partial curve]"
CC(=O)Nc1ccc(NC(=O)CCCc2nc(-c3ccc(C(C)(C)C)cc3)no2)cc1,AC50,[1],"10 µM [falling, partial curve]"
CCOc1cc(C(=O)Nc2ccc3oc(-c4ccc(F)cc4Cl)nc3c2)cc(OCC)c1OCC,AC50,[1],"3.16 µM [falling, partial curve]"
COc1ccc(N(Cc2cccs2)C(=O)c2ccccc2C)cc1,AC50,[1],"39.8 µM [falling, single point]"
Cc1ccc(NC(=O)c2cc(C)nn2-c2ccccc2)cc1,AC50,[1],"3.16 µM [falling, full curve]"
O=C(CCCCn1c(=O)c2ccccc2n(Cc2ccc(Cl)cc2)c1=O)NCc1ccccc1Cl,AC50,[1],"12.6 µM [falling, partial curve]"
Cc1cc(OC(C)C(=O)N(Cc2ccco2)Cc2ccccc2F)cc(C)c1Cl (stereo unspecified),AC50,[1],"12.6 µM [falling, partial curve]"
Cc1ccc(CCNC(=O)C2CCN(c3nnc(C)c4c(C)n(-c5ccccc5)nc34)CC2)cc1,AC50,[1],"0.794 µM [falling, partial curve]"
COc1ccc(CN(C2CCCC2)S(=O)(=O)c2ccc(-n3cnnn3)cc2)cc1OC,AC50,[1],"39.8 µM [falling, single point]"
CCOc1cccc2sc(N(Cc3cccnc3)C(=O)C3CCCCC3)nc12,AC50,[1],"2.51 µM [falling, full curve]"
Cc1ccc(NC(=O)CSCc2cnn(-c3ccccc3)c2-n2cccc2)c(C)c1,AC50,[1],"25.1 µM [falling, single point]"
Cc1ccc(NC(=O)CSc2nc3ccccc3c3nc(CCn4cncc4C)nn23)cc1F,AC50,[1],"31.6 µM [falling, partial curve]"
Cc1ccc(C)c(N2CCN(CCCNC(=O)C3COc4ccccc4C3)CC2)c1 (stereo unspecified),AC50,[1],"25.1 µM [falling, single point]"
CN1CCN(C(c2ccccc2Cl)c2sc3nc(-c4ccco4)nn3c2O)CC1 (stereo unspecified),AC50,[1],"3.98 µM [rising, full curve, poor fit]"
CCCS(=O)(=O)c1ncc(Cl)c(C(=O)N2CCN(c3ccc(OC)cc3)CC2)n1,AC50,[1],"2.51 µM [falling, full curve]"
Cc1ccc2ncc(C(=O)NCc3ccccc3Cl)c(=O)n2c1,AC50,[1],"3.16 µM [rising, full curve]"
CCN(Cc1ccccc1)Cc1c(O)ccc2c(=O)c(-c3ccccc3OC)c(C(F)(F)F)oc12,AC50,[1],"25.1 µM [falling, single point]"
Cc1cccc(OCCSc2nc3ccccc3n2CC(=O)N2CCCCC2)c1C,AC50,[1],"25.1 µM [falling, single point]"
CCOC(=O)c1ccc(N2CCN(c3cc(Cl)ccc3C)CC2)c(NC(=O)Nc2cccc(OC)c2)c1,AC50,[1],"7.94 µM [falling, partial curve]"
COc1ccccc1NC(=O)c1oc2ccc(C)cc2c1C,AC50,[1],"12.6 µM [falling, partial curve]"
Cc1ccc(Cn2c(CNS(=O)(=O)c3c(C)cc(C)cc3C)nc3cccnc32)cc1,AC50,[1],"0.1 µM [rising, partial curve, poor fit]"
CC(=O)Nc1nonc1-c1nnc(SCC(=O)Nc2ccc(F)cc2F)n1-c1ccccc1,AC50,[1],"12.6 µM [falling, partial curve]"
Cc1cccc(S(=O)(=O)Nc2cccc(-c3cn4ccsc4n3)c2)c1,AC50,[1],"15.8 µM [falling, partial curve]"
CCc1ccc(-n2c(SC(CC)C(=O)N(CC)CC)nc3n[nH]c(C)c3c2=N)cc1 (stereo unspecified),AC50,[1],"12.6 µM [falling, partial curve]"
CCOCCCNC(=O)C1CCCN(Cc2nc(-c3ccc(CC)cc3)oc2C)C1 (stereo unspecified),AC50,[1],"20 µM [falling, partial curve, poor fit]"
CCn1ccc2cc(S(=O)(=O)N3CCCN(C(=O)Nc4ccccc4OC)CC3)ccc21,AC50,[1],"3.16 µM [falling, partial curve]"
CCc1ccc(OCC(=O)N(Cc2cccs2)c2ccc(Cl)cc2)cc1,AC50,[1],"31.6 µM [falling, partial curve]"
Cc1cc2oc(=O)c(CC(=O)NCCc3ccccc3)c(C)c2c2occ(C(C)(C)C)c12,AC50,[1],"15.8 µM [falling, partial curve]"
CCCOC(=O)c1c(C)oc2c1cc(NS(=O)(=O)c1ccc(OCC)cc1)c1ccccc12,AC50,measured here: IkB-luc green channel,"2 µM [rising, partial curve]"
same,AC50,measured here: control luc red channel,"1.58 µM [rising, partial curve]"
COc1ccc(-c2cn3c(n2)sc2cc(C(=O)NC4CCCc5ccccc54)ccc23)cc1 (stereo unspecified),AC50,[1],"12.6 µM [falling, partial curve]"
Cc1[nH]c2ccccc2c1-c1nc2ccccc2[nH]1,AC50,[1],"0.126 µM [falling, full curve]"
O=C(Nc1c(F)cc(F)cc1Br)c1cc(-c2ccc(O)cc2)on1,AC50,[1],"12.6 µM [falling, partial curve]"
CCN(C(=O)CCc1nc(-c2ccc(C)cc2)no1)c1cc(C)ccc1C,AC50,[1],"39.8 µM [falling, single point]"
O=C1c2ccccc2CC[C@H]1CNCCc1ccc(O)cc1,AC50,[1],"39.8 µM [rising, single point] [measured here: IkB-luc green channel]"
CCc1ccc(NC(=O)CC2C(=O)N(c3cccc(OC)c3)C(=O)N2Cc2ccco2)cc1 (stereo unspecified),AC50,[1],"25.1 µM [falling, partial curve]"
Cc1ccc(C(Nc2ccccn2)c2ccc3cccnc3c2O)cc1 (stereo unspecified),AC50,[1],"3.98 µM [falling, full curve]"
C[C@@]12CCC(=O)C=C1CC[C@H]1[C@H]3CC[C@](O)(C(=O)CO)[C@]3(C)CC[C@@H]12,AC50,[1],"5.01 µM [rising, full curve] [measured here: IkB-luc green channel]"
COc1cc(Cl)c(C)cc1NC(=O)CCc1c(C)nc2cc(-c3cccc(F)c3)nn2c1C,AC50,[1],"6.31 µM [falling, partial curve]"
CCc1c(C)sc2c1CCN(C(=O)Nc1ccccc1C(F)(F)F)C2c1ccccc1 (stereo unspecified),AC50,[1],"12.6 µM [falling, partial curve]"
O=C(CCn1cnc2onc(-c3ccc(F)cc3)c2c1=O)N1CCN(c2ccc(F)cc2)CC1,AC50,[1],"15.8 µM [falling, partial curve]"

# A different layout for some results above:
smiles	measurement	setting	value
CCOC(=O)c1ccc(N2CCN(c3cc(Cl)ccc3C)CC2)c(NC(=O)Nc2cccc(OC)c2)c1	AC50	[1]	7.94 µM [falling, partial curve]
Cc1cc2oc(=O)c(CC(=O)NCCc3ccccc3)c(C)c2c2occ(C(C)(C)C)c12	AC50	[1]	15.8 µM [falling, partial curve]
